According to article PMC12117180, “DNA‐Binding Properties of Non‐Intercalating Water‐Soluble Organometallic Ir(III) Luminophores” (Chemistry (Weinheim an Der Bergstrasse, Germany), 2025):

Experiments:
fish sperm DNA (FSDNA) = experiment: UV-visible titrations with fish sperm DNA, multiple independent binding sites (MIS) model; conditions: change in molar absorption on DNA binding; 25 mM MOPS, 50 mM NaCl, pH 7.0, 25 °C
Experimental: We then studied the interactions of the complexes with double‐stranded DNA using UV‐visible titrations. Briefly, solutions of 44.14, 31.52, 35.17, 37.55, and 29.62 µM for the five complexes [Ir(L1‐5)2(en)]Cl, respectively, were titrated (in duplicate) with fish sperm DNA (FSDNA) at 25 °C (Figure 7 and Figures S19–22). The interactions between these complexes and DNA turned out not to involve a single type of binding site (vide infra). Nevertheless, the data from the UV‐visible titrations were provisionally analyzed globally using the multiple independent binding sites (MIS) model to determine apparent binding affinities and apparent binding site sizes (Table 4).
All solutions were prepared by dissolving solids in a buffer with stirring, then filtration through a 0.22 µm PES filter to remove solid particles and ensure uniform, saturated solutions before titration. Concentrations were determined using extinction coefficients. MOPS buffer was prepared by dissolving MOPS (3‐(N‐morpholino)propanesulfonic acid, NaCl (all obtained from Fisher and used as supplied) in deionized water (Elga Purelab Flex), adjusting the pH to 7.0 using a NaOH solution (pH of the buffer was determined using a Hanna Instruments pH211 microprocessor pH meter with a Bioblock Scientific pH probe) and making up the solution to 0.5 liter. A stock solution of fish sperm DNA was prepared by dissolving approximately 0.1 g of fish sperm DNA in 10 mL of the buffer. The resulting solution was dialyzed (3.5 kDa MWCO, Visking, Medicell International Ltd) against 0.5 liters of buffer. Following dialysis, the DNA concentration was determined using UV‐visible spectroscopy using a molar absorption coefficient ε260 nm = 12 800 M^−1 cm^−1.^[ [37] ^] Spectra and titrations were plotted in OriginLab Origin 2019b. The titration data were analyzed globally for each complex using an in‐house written version of the multiple independent binding sites model which also explicitly takes changing ligand concentrations into account.^[ [49] ^]

FSDNA = experiment: Isothermal titration calorimetry of DNA binding, two types of independent binding sites; design: species or system fish; conditions: 25 mM MOPS, 5 mM NaCl, pH 7.0, 25 °C; for ΔH A1 / ‐TΔS A1: high-affinity site; for ΔH B1 / ‐TΔS B1: low-affinity site
Experimental: Cooperative self‐aggregation of DNA binders in combination with DNA binding makes data analysis complex because of the presence of coupled equilibria.^[ [46] ^] In the case of aggregation of charged species, the aggregation process tends to be very sensitive to salt concentration. We therefore studied self‐aggregation in buffer at a lower salt concentration (25 mM MOPS, pH 7.0, 5 mM NaCl) and found no indications of self‐aggregation. We therefore opted to carry out the ITC experiments in a buffer with a reduced salt concentration of 5 mM. Titrations were carried out in two parts, viz. a first titration focussing on the first binding event followed by a second titration focussing on the second binding event (Figures S23–25 with complex and DNA concentrations for each individual titration in Table S5). Figures S23 and S25 clearly show two binding events, as anticipated from UV‐visible titrations.
We analyzed the data using a model involving two types of independent binding sites, correcting for dilution heat effects in our custom data analysis software I2CITC^[ [45], [47] ^] […] The complexes also bind to a second lower affinity type of binding site with a size of approximately 2–3 basepairs with an affinity K B1 of the order of 10^5 M^−1 in an exothermic process. Based on the combination of binding site size and the exothermic interaction, we attribute the low‐affinity binding event to non‐specific binding of the cationic complexes to negatively charged DNA, supported by hydrophobic interactions between complexes. The binding site size of the higher affinity binding site exceeds the dimensions of the complexes of around five base pairs, as estimated from the docking studies (vide supra). […] Intriguingly, the relatively low ΔH A1 is in line with groove binding.^[ [48] ^]
Buffers employed in the experiments were 50 mM NaCl and 25 mM MOPS (adjusted to pH 7 with NaOH) and 5 mM NaCl and 25 mM MOPS (adjusted to pH 7 with NaOH). Solutions of DNA were prepared by diluting the DNA stock solutions (see UV‐visible titrations) as required. Complex solutions were prepared by dissolving 5 mg of the complex in 5 mL of buffer, then filtered through a 0.22 µm PES filter to ensure uniform solutions for ITC titration. Concentrations of solutions of complexes and of DNA were determined using UV‐visible spectroscopy. Calorimetric titrations were carried out at 25 °C on a MicroCal PEAQ‐ITC microcalorimeter (Malvern Instruments Ltd., Worcestershire, UK). The instrument was operated by applying a reference power of 10 μcal/s in high‐feedback mode, stirring the sample cell contents at 750 rpm, with a pre‐injection initial delay of 60 s. Solutions of complexes were loaded into the calorimeter injection syringe and DNA solutions were loaded into the sample cell. All experiments involved an initial injection of 0.4 µL in 0.8 s followed by 18 further injections of 2.0 µL in 4.0 s per injection into the calorimeter sample cell. Injections were spaced by at least 90 s to allow full recovery of the baseline. Raw data were treated using MicroCal PEAQ‐ITC Analysis Software (1.41) to generate both integrated heat effects per injection (ΔQ) and molar heat effects per injection (ΔH). Further data analysis was carried out using I2CITC.^[ [45], [47] ^]

SMILES	Δε (fish sperm DNA (FSDNA))	ΔH A1 (FSDNA) [kcal/mol]	‐TΔS A1 (FSDNA) [kcal/mol]	ΔH B1 (FSDNA) [kcal/mol]	‐TΔS B1 (FSDNA) [kcal/mol]
Cc1c[c-]c(-c2nc3ccccc3s2)cc1.Cc1c[c-]c(-c2nc3ccccc3s2)cc1.NCCN.[Cl-].[Ir+3] [[Ir(L2)2(en)]Cl]	−3.2 ± 0.1 10^3 M^−1 cm^−1	0.14	-11.2	-2.99	-4.66
COc1c[c-]c(-c2nc3ccccc3s2)cc1.COc1c[c-]c(-c2nc3ccccc3s2)cc1.NCCN.[Cl-].[Ir+3] [[Ir(L3)2(en)]Cl]	−5.9 ± 0.2 10^3 M^−1 cm^−1	0	-9.94	–	-3.39
Clc1c[c-]c(-c2nc3ccccc3s2)cc1.Clc1c[c-]c(-c2nc3ccccc3s2)cc1.NCCN.[Cl-].[Ir+3] [[Ir(L4)2(en)]Cl]	−3.6 ± 0.2 10^3 M^−1 cm^−1	–	–	–	–
NCCN.[Cl-].[Ir+3].[c-]1ccccc1-c1nc2ccccc2s1.[c-]1ccccc1-c1nc2ccccc2s1 [[Ir(L1)2(en)]Cl]	−2.7 ± 0.2 10^3 M^−1 cm^−1	-0.789	-10.6	-3.73	-3.3
FC(F)(F)Oc1c[c-]c(-c2nc3ccccc3s2)cc1.FC(F)(F)Oc1c[c-]c(-c2nc3ccccc3s2)cc1.NCCN.[Cl-].[Ir+3] [[Ir(L5)2(en)]Cl]	−6.6 ± 0.2 10^3 M^−1 cm^−1	–	–	–	–
